# Reference: the supplement of paper PMC11438910
# The other results are listed elsewhere or left out. The signal is at background level for most entries.
# B1: 4-127.1 (protein)
# chain 1: QVQLQESGPGLVKPSETLSLTCAVSDYSINTGHGWTWIRQPPGKGLEWIGYIGGSSGSPNYNPSLKSRVTISKDTSKNELSLKLNSVTAADTAVYYCARRIPADRSGNDFWGQGVLVTVSS
# chain 2: QSVLTQPPSVSGDPGQRVTISCTGSSSNIGGFYGYWYQQFPGTAPKLLIYDNNKRPSGISDRFSGSKSGTSASLTITGLQPGDEADYYCGSWDSSLSAHVFGSGTKLTVL
# How the values were obtained:
# Assay in all cases: fluorescence intensity of antibody binding to polysaccharide-coupled beads; higher = stronger binding
# [1] = biological target: pneumococcal polysaccharide Pn34
# [2] = biological target: pneumococcal polysaccharide Pn35A
# [3] = biological target: pneumococcal polysaccharide Pn35B
# [4] = biological target: pneumococcal polysaccharide Pn35C
# [5] = biological target: pneumococcal polysaccharide Pn35F
# [6] = biological target: pneumococcal polysaccharide Pn36
# [7] = biological target: pneumococcal polysaccharide Pn37
# [8] = biological target: pneumococcal polysaccharide Pn38
# [9] = biological target: pneumococcal polysaccharide Pn39
# [10] = biological target: pneumococcal polysaccharide Pn4
# [11] = biological target: pneumococcal polysaccharide Pn40
# [12] = biological target: pneumococcal polysaccharide Pn41A
# [13] = antibody concentration 0.1 ng/mL
# [14] = antibody concentration 0.534724 ng/mL
# [15] = antibody concentration 2.8593 ng/mL
# [16] = antibody concentration 15.2894 ng/mL
# [17] = antibody concentration 81.7561 ng/mL
# [18] = antibody concentration 437.17 ng/mL
# [19] = antibody concentration 2337.65 ng/mL
# [20] = antibody concentration 12500 ng/mL
binder,measurement,setting,value
B1,fluorescence intensity,[1]; [13],12.5 MFI
same,fluorescence intensity,[1]; [14],14.5 MFI
same,fluorescence intensity,[1]; [15],14.8 MFI
same,fluorescence intensity,[1]; [16],13 MFI
same,fluorescence intensity,[1]; [17],13 MFI
same,fluorescence intensity,[1]; [18],13.8 MFI
same,fluorescence intensity,[1]; [19],14.8 MFI
same,fluorescence intensity,[1]; [20],17 MFI
same,fluorescence intensity,[2]; [13],16 MFI
same,fluorescence intensity,[2]; [14],16.5 MFI
same,fluorescence intensity,[2]; [15],18.8 MFI
same,fluorescence intensity,[2]; [16],16.5 MFI
same,fluorescence intensity,[2]; [17],17 MFI
same,fluorescence intensity,[2]; [18],15.5 MFI
same,fluorescence intensity,[2]; [19],19.2 MFI
same,fluorescence intensity,[2]; [20],36 MFI
same,fluorescence intensity,[3]; [13],19.5 MFI
same,fluorescence intensity,[3]; [14],17.5 MFI
same,fluorescence intensity,[3]; [15],18.5 MFI
same,fluorescence intensity,[3]; [16],17 MFI
same,fluorescence intensity,[3]; [17],18.8 MFI
same,fluorescence intensity,[3]; [18],18.8 MFI
same,fluorescence intensity,[3]; [19],19.5 MFI
same,fluorescence intensity,[3]; [20],30 MFI
same,fluorescence intensity,[4]; [13],20.2 MFI
same,fluorescence intensity,[4]; [14],20 MFI
same,fluorescence intensity,[4]; [15],20.8 MFI
same,fluorescence intensity,[4]; [16],20.5 MFI
same,fluorescence intensity,[4]; [17],20 MFI
same,fluorescence intensity,[4]; [18],18.5 MFI
same,fluorescence intensity,[4]; [19],20.5 MFI
same,fluorescence intensity,[4]; [20],24 MFI
same,fluorescence intensity,[5]; [13],22 MFI
same,fluorescence intensity,[5]; [14],18.5 MFI
same,fluorescence intensity,[5]; [15],17.2 MFI
same,fluorescence intensity,[5]; [16],21.5 MFI
same,fluorescence intensity,[5]; [17],18.2 MFI
same,fluorescence intensity,[5]; [18],23.5 MFI
same,fluorescence intensity,[5]; [19],19 MFI
same,fluorescence intensity,[5]; [20],22.5 MFI
same,fluorescence intensity,[6]; [13],16 MFI
same,fluorescence intensity,[6]; [14],16.5 MFI
same,fluorescence intensity,[6]; [15],14.5 MFI
same,fluorescence intensity,[6]; [16],15.5 MFI
same,fluorescence intensity,[6]; [17],16 MFI
same,fluorescence intensity,[6]; [18],17 MFI
same,fluorescence intensity,[6]; [19],17.5 MFI
same,fluorescence intensity,[6]; [20],38.8 MFI
same,fluorescence intensity,[7]; [13],25 MFI
same,fluorescence intensity,[7]; [14],24.8 MFI
same,fluorescence intensity,[7]; [15],24.5 MFI
same,fluorescence intensity,[7]; [16],24.5 MFI
same,fluorescence intensity,[7]; [17],25 MFI
same,fluorescence intensity,[7]; [18],26.2 MFI
same,fluorescence intensity,[7]; [19],41.2 MFI
same,fluorescence intensity,[7]; [20],141 MFI
same,fluorescence intensity,[8]; [13],27.5 MFI
same,fluorescence intensity,[8]; [14],27 MFI
same,fluorescence intensity,[8]; [15],24.5 MFI
same,fluorescence intensity,[8]; [16],25 MFI
same,fluorescence intensity,[8]; [17],24.8 MFI
same,fluorescence intensity,[8]; [18],25.8 MFI
same,fluorescence intensity,[8]; [19],27.5 MFI
same,fluorescence intensity,[8]; [20],35.5 MFI
same,fluorescence intensity,[9]; [13],20.8 MFI
same,fluorescence intensity,[9]; [14],17.5 MFI
same,fluorescence intensity,[9]; [15],17.5 MFI
same,fluorescence intensity,[9]; [16],18 MFI
same,fluorescence intensity,[9]; [17],17 MFI
same,fluorescence intensity,[9]; [18],18 MFI
same,fluorescence intensity,[9]; [19],19.5 MFI
same,fluorescence intensity,[9]; [20],30.5 MFI
same,fluorescence intensity,[10]; [13],18.5 MFI
same,fluorescence intensity,[10]; [14],18.5 MFI
same,fluorescence intensity,[10]; [15],17 MFI
same,fluorescence intensity,[10]; [16],17 MFI
same,fluorescence intensity,[10]; [17],19.5 MFI
same,fluorescence intensity,[10]; [18],18.5 MFI
same,fluorescence intensity,[10]; [19],26.5 MFI
same,fluorescence intensity,[10]; [20],42 MFI
same,fluorescence intensity,[11]; [13],17 MFI
same,fluorescence intensity,[11]; [14],17 MFI
same,fluorescence intensity,[11]; [15],16.5 MFI
same,fluorescence intensity,[11]; [16],16.5 MFI
same,fluorescence intensity,[11]; [17],17.5 MFI
same,fluorescence intensity,[11]; [18],17.8 MFI
same,fluorescence intensity,[11]; [19],21.2 MFI
same,fluorescence intensity,[11]; [20],46 MFI
same,fluorescence intensity,[12]; [13],22.5 MFI
same,fluorescence intensity,[12]; [14],23.5 MFI

# 5 entries drawn at random from those above, as already listed:
binder,measurement,setting,value
B1,fluorescence intensity,[8]; [13],27.5 MFI
same,fluorescence intensity,[11]; [17],17.5 MFI
same,fluorescence intensity,[7]; [18],26.2 MFI
same,fluorescence intensity,[4]; [13],20.2 MFI
same,fluorescence intensity,[6]; [14],16.5 MFI
